# System: larvae
# Assay: Forced light/dark transition assay screening hemp extracts, diazepam and caffeine (Example 5)
# Assay type: in vivo, zebrafish
# Conditions: last minute of baseline, dark
# Experimental: Our forced light/dark transition protocol was as follows. First, there was 10 minutes of total darkness (which we refer to as the baseline period; compounds were introduced at the beginning of the baseline period, and 10 minutes were allotted to allow for drug absorption and acclimation). Next, there was a period of five minutes of light exposure followed by five minutes of dark exposure, repeated three times. Finally, there was an additional five minutes of dark exposure.
# A variety of statistical techniques were used to address our hypotheses about the potential anxiolytic and anxiogenic effects of four compounds. In outline: • 1) Overall models were carried out using linear mixed-effect models • 2) Deliberate pairwise comparisons between controls and dosages of interest were carried out using appropriate two-sample comparison tests
# All statistical analyses were carried out in R version 3.2.2 (R core developer team). Overall models were linear mixed-effects models (LMMs), and were fitted using the Ime4 package (Bates, Machler, Bolker, & Walker, 2015). Data were transformed as indicated to fit the assumptions of LMMs. Posthoc tests were performed using the multcomp package in R. Data distributions were initially assessed visually and model diagnostics were subsequently checked to assure appropriate fits. […]
smiles,measurement,value
CN1C(=O)CN=C(c2ccccc2)c2cc(Cl)ccc21 [diazepam],dosage as predictor of mean distance moved after ~10 minutes of exposure (LMM),This model was significant
